Results taken from publication PMC11792004.

Protein sequences, listed by entry. Tags and fused reporters are not part of them. Lines headed by an entry give the natural chain unless they say otherwise; changes in a name come on top.
UniProt Q08722: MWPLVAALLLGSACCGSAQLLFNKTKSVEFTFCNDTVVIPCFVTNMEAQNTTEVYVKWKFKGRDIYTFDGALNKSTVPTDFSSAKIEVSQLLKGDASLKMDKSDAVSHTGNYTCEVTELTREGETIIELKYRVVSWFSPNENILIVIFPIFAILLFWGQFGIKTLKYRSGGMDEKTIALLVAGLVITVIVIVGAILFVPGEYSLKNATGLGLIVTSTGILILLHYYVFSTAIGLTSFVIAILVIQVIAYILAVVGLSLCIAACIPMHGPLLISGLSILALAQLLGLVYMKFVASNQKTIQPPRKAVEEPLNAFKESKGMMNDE

Biological target: T1, GST-TRAF2 (UniProt Q12933)
T1 sequence: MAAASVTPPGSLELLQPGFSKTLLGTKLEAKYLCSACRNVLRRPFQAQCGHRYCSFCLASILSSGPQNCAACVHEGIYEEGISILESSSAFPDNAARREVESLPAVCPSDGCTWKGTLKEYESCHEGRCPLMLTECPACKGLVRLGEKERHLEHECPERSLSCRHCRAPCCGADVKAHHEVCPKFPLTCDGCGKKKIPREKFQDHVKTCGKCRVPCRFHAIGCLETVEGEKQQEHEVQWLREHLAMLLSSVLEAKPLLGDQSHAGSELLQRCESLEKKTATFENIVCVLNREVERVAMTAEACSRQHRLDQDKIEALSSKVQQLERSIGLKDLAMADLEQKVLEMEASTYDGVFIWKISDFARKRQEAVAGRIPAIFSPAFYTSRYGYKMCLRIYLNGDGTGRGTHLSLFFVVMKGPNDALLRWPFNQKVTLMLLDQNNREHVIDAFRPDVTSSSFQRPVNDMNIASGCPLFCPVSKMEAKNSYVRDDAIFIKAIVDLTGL
Experiment: pull-down; in vitro binding: 5 µg GST-TRAF2 immobilised on glutathione-agarose beads, 25 mM HEPES pH7.5, 6 mM NaCl, 0.2% NP-40, 4 °C; same amount of his-CD47 or his-CD47/∆C added; Western blot; both purified

Q: With “his-CD47 (pET-28a-CD47) (from UniProt Q08722)” as the substance, how does the binding read?
A: Its binding is “binds”.

No constants are given. Whether binding was seen depends on the method and setting. A result given as binding can be weak or reduced; the word gives no strength. Tags and fused reporters may be left off the sequences shown.
